Laboratory results: PubChem BioAssay AID2685 (National Center for Advancing Translational Sciences (NCATS), 2010)
Among all 320,000 compounds or so, about 2,100 (0.66%) were called active. Inconclusive results, whose numbers are uncertain, are shown with a selection of clear calls. Calls follow the shape of the dose curve; as a rule, active = well fitted inhibition curve with a large enough effect in the signal ratio, with a control signal flat (not every such curve was filed as active); inconclusive = small, poorly fitted or top-dose-only effect, or effect the other way, or a change in a side signal; inactive = flat fitted curve, though single readings scatter; the % refers to the signal ratio. A potency beside an inconclusive call is a rough fit, not a confirmed value.

assay: qHTS Assay for Lipid Storage Modulators in Drosophila S3 Cells; settings: BODIPY lipid droplet fluorescence, 18-24 h, cells fed with added oleic acid; lipid storage change, negative = inhibition: at 46.1 µM (top of the series) unless noted
Procedure, shortened: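 Drosophila S3 cells loaded with oleic acid (400 uM, as added) and compounds at several concentrations; lipid droplets imaged by 488-nm laser-scanning cytometry, 500–530 nm intensity and object ratio to cell channel. Percent activity normalized to 20 uM Triacsin C.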
% is scaled to controls: 0 for no effect and ±100 for the full control effect; potency is read from the fitted curve at half-maximal effect.

| Compound | Potency | lipid storage change, negative = inhibition |
| --- | --- | --- |
| Cc1cccc(NC(=S)NCCC(C)C)c1 | inconclusive: 0.0046 µM [falling, full curve, poor fit] |  |
| O=C1C=C(c2cccc3c2oc2ccccc23)C[C@@H](c2ccc(F)cc2)C1 | inconclusive: 0.146 µM [falling, single point] |  |
| Cc1cc(C)n2c(SCC(=O)Nc3ccccc3)nnc2n1 | inconclusive: 6.51 µM [activator, full curve, poor fit] |  |
| CCn1c(COc2cc(C)ccc2C(C)C)nnc1SCC(=O)Nc1nccs1 |  | inconclusive: 6.8% |
| CCCCC1C(=O)CC[C@H]2[C@@H]1CC(=O)[C@@H]2C/C=C\CCCC(=O)O (stereo partly drawn) | active: 9.2 µM |  |
| O=C(COC(=O)CSc1ccc([N+](=O)[O-])cc1)NCCCc1ccccc1 |  | inconclusive: 16.7% |
| C/C=C(\C)C(=O)Nc1cccc(C2=NOC3(C2)C[C@H](C(N)=O)N(C(=O)C(c2ccccc2)c2ccccc2)C3)c1 (stereo partly drawn) |  | inconclusive: 12% |
| Cc1ccc(C(=O)N[C@H](C(=O)N2CCN(c3ccccc3F)CC2)C(C)C)cc1 | inconclusive: 3.66 µM [activator, full curve] |  |
| C/C(=N\NC(=O)c1ccc(Cl)cc1)c1cccs1 |  | inconclusive: -13.7% |
| Cc1ccc(CNc2nc(C)c(C(=O)N(C)C)s2)cc1 | inconclusive: 1.16 µM [falling, single point] |  |
| CCC(C)Sc1nc2c(c(=O)n1C)SC(C)C2 (stereo not drawn) |  | inconclusive: 22.5% |
| Cc1cc(C)nc(NS(=O)(=O)c2ccc(NC(=O)CN3C(=O)c4ccccc4C3=O)cc2)n1 | active: 6.51 µM |  |
| CCc1ccc2oc(C(=O)N3CCN(C)CC3)cc(=O)c2c1 |  | inactive |
| COc1ccc(N2CCN(C(c3cccs3)C(C)NS(=O)(=O)c3ccccc3)CC2)cc1 (stereo not drawn) | inconclusive: 16.4 µM [rising, single point] |  |
| CCOC(=O)c1ccc(NC(=O)C2(c3ccc(OC)cc3)CCCC2)cc1 | inconclusive: 2.31 µM [activator, partial curve] |  |
| Cn1ccnc1SCC(=O)NC12CC3CC(CC(C3)C1)C2 |  | inconclusive: -78% |
| CCOC(=O)c1ccc(Oc2nc(NC(C)(C)C)nc(N(C)C)n2)cc1 | inconclusive: 8.2 µM [falling, partial curve] |  |
| Cc1ccc(NC(=O)Cn2c(O)c(N=NC(=O)c3ccncc3)c3ccccc32)cc1 |  | inconclusive: -9.97% |
| Cc1ccc2nc(/C(C#N)=C/c3ccc(O)c(O)c3)[nH]c2c1 | inconclusive: 29.1 µM [falling, single point] |  |
| CC(C)(Oc1ccc(Cl)cc1)C(=O)Nc1ccc2oc(=O)ccc2c1 | inconclusive: 6.51 µM [activator, single point] |  |
| CCOc1cccc(CN2CCN(c3cccc(C(F)(F)F)c3)CC2)c1O | inconclusive: 0.206 µM [falling, full curve] |  |
| Cc1nnc(SCC(=O)N2CC(=O)Nc3ccccc32)n1C | inconclusive: 29.1 µM [falling, single point] |  |
| CCn1c(=O)c2cc(S(=O)(=O)NCc3ccccc3)ccc2n(CC)c1=O | inconclusive: 0.731 µM [activator, full curve, poor fit] |  |
| O=C(CCC(=O)c1cccs1)Nc1ccc(N2CCCCC2)cc1 |  | inconclusive: 3.79% |
| O=C(Nc1nc2c(s1)CCCC2)c1ccc(S(=O)(=O)N2CCCc3ccccc32)cc1 | inconclusive: 1.84 µM [activator, partial curve, poor fit] |  |

| Compound | Potency | lipid storage change, negative = inhibition |
| --- | --- | --- |
| O=C(c1cc2cc(Cl)cc(Cl)c2oc1=O)N1CCOCC1 |  | inconclusive: 44.5% |
| COc1ccc(OC)c(-c2csc(NC(=O)Cn3[nH]c(=O)c4ccccc4c3=O)n2)c1 |  | inconclusive: 17.3% |
| COc1ccc(NC(=O)CSc2nc(N)c(-c3ccccc3)c(=O)[nH]2)cc1 |  | inconclusive: 2.9% |
| Cc1ccc(N2C(=O)CC(Sc3nc(C)cc(C)n3)C2=O)cc1 (stereo not drawn) | inconclusive: 0.517 µM [activator, partial curve, poor fit] |  |
| CC1CC1C(=O)N(C)CC(=O)Nc1ccc(Cl)c(C(F)(F)F)c1 (stereo not drawn) |  | inconclusive: 34.2% |
| Cc1cc(S(=O)(=O)N(Cc2ccccc2F)C2CC2)ccc1-n1cnnn1 | inconclusive: 4.11 µM [falling, full curve] |  |
| Cc1ccccc1-n1c(SCC(=O)NC2CCS(=O)(=O)C2)nc2ccccc2c1=O (stereo not drawn) |  | inconclusive: 13% |
| COC(=O)[C@]1(C)CCC[C@@]2(C)C3CC[C@@]4(C)C[C@]3(CCC21)CC(=O)N4Cc1ccc(OC)cc1 (stereo partly drawn) | inconclusive: 25.9 µM [falling, single point] |  |
| Cc1ccc(N2C(=O)C(NC(=O)c3ccccc3F)(C(F)(F)F)C3=C2CC(C)(C)CC3=O)cc1 (stereo not drawn) | inconclusive: 16.4 µM [falling, single point] |  |
| Cc1ccc2cc(CN(Cc3nnnn3C3CCCCC3)CC3CCCO3)c(=O)[nH]c2c1 (stereo not drawn) |  | inconclusive: 37.3% |
| Nc1nc(SCC(=O)c2c(N)n(C3CC3)c(=O)[nH]c2=O)n[nH]1 |  | inconclusive |
| Cc1ccc(C(=O)CCNc2ccc(F)c(Cl)c2)o1 | inconclusive: 2.91 µM [activator, single point] |  |
| CCC(=O)N(CC)c1nc(-c2cc(OC)ccc2OC)cs1 |  | inconclusive: 1.79% |
| COCCN=C1Sc2nc3c(C)cccc3cc2CN1Cc1ccco1 |  | inconclusive: -5.97% |
| COc1ccc(S(=O)(=O)Oc2ccccc2C(N)=O)cc1 |  | inconclusive: 56.8% |
| O=C(NCc1ccc(F)cc1)C1CCC(CNS(=O)(=O)c2cccs2)CC1 (stereo not drawn) |  | inconclusive: 73.9% |
| COc1ccc(NC(=O)COC(=O)COc2cccc(Br)c2)cc1OC | inconclusive: 6.51 µM [falling, single point] |  |
| O=C(CCS(=O)(=O)c1ccccc1)Nc1nc2c(s1)COc1ccccc1-2 |  | inconclusive: 12.9% [at 9.22 µM] |
| Cc1cccc(OCC(=O)Nc2ccc(S(=O)(=O)Nc3ccccn3)cc2)c1 |  | inconclusive: -7.05% |
| CC(=O)N1CCN(c2ccc(NCc3cccc(C)c3)cc2)CC1 |  | inconclusive: 14.2% |
| O=C(COC(=O)c1cc([N+](=O)[O-])ccc1N1CCOCC1)Nc1ncc(Cl)cc1Cl |  | inconclusive: -43% |
| COc1cccc(/C=N/NC(=O)c2cccc3ccccc23)c1 |  | inconclusive: 380% |
| CC(CCc1ccccc1)NC(=O)CC(C)c1ccccc1 (stereo not drawn) | inconclusive: 9.2 µM [activator, partial curve] |  |
| CCCCCCC[N+](CC)(CC)CCCCc1ccc(Cl)cc1 | inconclusive: 29.1 µM [cytotoxic, single point] |  |
| CC(C)C(NS(=O)(=O)c1cccc2nsnc12)C(=O)NC1CCCCC1C (stereo not drawn) | inconclusive: 9.2 µM [activator, partial curve, poor fit] |  |

2 of these compounds in another layout:
Compound	Potency	lipid storage change, negative = inhibition
Cc1ccc2cc(CN(Cc3nnnn3C3CCCCC3)CC3CCCO3)c(=O)[nH]c2c1 (stereo not drawn)		inconclusive: 37.3%
Nc1nc(SCC(=O)c2c(N)n(C3CC3)c(=O)[nH]c2=O)n[nH]1		inconclusive

The list continues.

| Compound | Potency | lipid storage change, negative = inhibition |
| --- | --- | --- |
| Cc1cccc(S(=O)(=O)NC(Cc2c[nH]c3ccccc23)C(=O)O)c1 (stereo not drawn) |  | inconclusive: -20.4% |
| CCOC(=O)c1c(NC(=O)CN2CCOCC2)sc2c1CC(C)(C)OC2 |  | inconclusive: -29.8% |
| CCOC(=O)CSc1nnc(COc2cccc(C)c2)o1 |  | inconclusive: -8.16% |
| CN1CCN(C(=S)NC(=O)c2ccc(Br)cc2)CC1 | inconclusive: 4.11 µM [falling, full curve, poor fit] |  |
| CC(C)CN1CCCC(N2CCN(c3cccc(Cl)c3)CC2)C1 (stereo not drawn) | inconclusive: 29.1 µM [activator, single point] |  |
| CC(OCC(O)CN(C)CCOc1ccccc1)c1ccc(Cl)cc1 (stereo not drawn) |  | inconclusive: -43.5% |
| CC(C)(C)n1ncc2c(=O)n(CC(=O)N3CCCCCC3)cnc21 |  | inconclusive: 13.4% |
| COc1ccc(OC)c(CNC(=O)Cc2c(C(=O)O)[nH]c3ccccc23)c1 |  | inconclusive: 2.58% |
| CCCCC(C)n1[nH]c(=O)c2c(C)cc(C)nc21 (stereo not drawn) |  | inconclusive: -7.72% |
| CCSc1ccc(-c2nn(-c3ccccc3)cc2/C=C(/C#N)C(=O)NCCCOC)cc1 | inconclusive: 8.2 µM [cytotoxic, partial curve] |  |
| CCCCn1c(=O)[nH]c(=O)c2c1nc(-c1ccc(C)c([N+](=O)[O-])c1)n2CC |  | inconclusive: -32.2% |
| CCS(=O)(=O)/N=C(\N)c1ccccc1 |  | inconclusive: -40.2% |
| CCOC(=O)C1CCN(C(=O)c2cc(COc3ccc(OC)c4ccccc34)on2)CC1 |  | inactive |
| C=CCN(C(=O)c1cc(C)cc(C)c1)C1(C(=O)Nc2ccccc2)CCN(C(C)C)CC1 | inconclusive: 0.164 µM [falling, full curve, poor fit] |  |
| COc1ccccc1C(=O)N(Cc1ccc(C)o1)C1CCS(=O)(=O)C1 (stereo not drawn) |  | inconclusive: -23.4% |
| COc1ccccc1C(=O)N1CCN(CCNC(=O)C(=O)Nc2ccc(Br)c(C)c2)CC1 | inconclusive: 6.51 µM [activator, single point] |  |
| CCCN(CC(=O)Nc1cc(Cl)cc(Cl)c1)CC(=O)Nc1ccc(F)c(F)c1F | inconclusive: 16.4 µM [falling, single point] |  |
| O=C(O)C1CC(=O)N(CCOc2ccccc2)C1 (stereo not drawn) | inconclusive: 1.46 µM [falling, full curve, poor fit] |  |
| Cn1c(=O)c(C(=O)Nc2ncccn2)c(O)c2ccccc21 |  | inconclusive: 84.5% |
| COC(=O)c1ccccc1NC(=O)c1ccccc1OC |  | inconclusive: 8.64% |
| CNCCCC1c2ccccc2C=Cc2ccccc21 |  | inconclusive: 0.515% |
| O=C1C=C(c2cc(Cl)cc(Cl)c2)C[C@@H](c2ccc(F)cc2)C1 | inconclusive: 0.082 µM [falling, single point] |  |
| COc1ccc(C(C)(C)C)cc1NC(=O)c1ccoc1C |  | inconclusive: 37.6% |
